This experiment deals with clathrin cages assembled in vitro from recombinant bovine brain clathrin and auxilin (bovine | not stated) (UniProt P49951+Q27974). The experiment is described as follows: stopped-flow light scattering; clathrin cages (0.3 μM clathrin heavy chain) with 1 mM ATP and 0.45 μM auxilin in 20 mM imidazole pH 6.8, 10 mM (NH4)2SO4, 25 mM KCl, 2 mM MgAc2, mixed with an equal volume of 4 μM Hsc70; transient increase in scattering read as binding; both purified.

Chains of the proteins cited; added tags and fusions are not shown. Lines headed by an entry give the natural chain unless they say otherwise; changes in a name come on top.
UniProt P49951: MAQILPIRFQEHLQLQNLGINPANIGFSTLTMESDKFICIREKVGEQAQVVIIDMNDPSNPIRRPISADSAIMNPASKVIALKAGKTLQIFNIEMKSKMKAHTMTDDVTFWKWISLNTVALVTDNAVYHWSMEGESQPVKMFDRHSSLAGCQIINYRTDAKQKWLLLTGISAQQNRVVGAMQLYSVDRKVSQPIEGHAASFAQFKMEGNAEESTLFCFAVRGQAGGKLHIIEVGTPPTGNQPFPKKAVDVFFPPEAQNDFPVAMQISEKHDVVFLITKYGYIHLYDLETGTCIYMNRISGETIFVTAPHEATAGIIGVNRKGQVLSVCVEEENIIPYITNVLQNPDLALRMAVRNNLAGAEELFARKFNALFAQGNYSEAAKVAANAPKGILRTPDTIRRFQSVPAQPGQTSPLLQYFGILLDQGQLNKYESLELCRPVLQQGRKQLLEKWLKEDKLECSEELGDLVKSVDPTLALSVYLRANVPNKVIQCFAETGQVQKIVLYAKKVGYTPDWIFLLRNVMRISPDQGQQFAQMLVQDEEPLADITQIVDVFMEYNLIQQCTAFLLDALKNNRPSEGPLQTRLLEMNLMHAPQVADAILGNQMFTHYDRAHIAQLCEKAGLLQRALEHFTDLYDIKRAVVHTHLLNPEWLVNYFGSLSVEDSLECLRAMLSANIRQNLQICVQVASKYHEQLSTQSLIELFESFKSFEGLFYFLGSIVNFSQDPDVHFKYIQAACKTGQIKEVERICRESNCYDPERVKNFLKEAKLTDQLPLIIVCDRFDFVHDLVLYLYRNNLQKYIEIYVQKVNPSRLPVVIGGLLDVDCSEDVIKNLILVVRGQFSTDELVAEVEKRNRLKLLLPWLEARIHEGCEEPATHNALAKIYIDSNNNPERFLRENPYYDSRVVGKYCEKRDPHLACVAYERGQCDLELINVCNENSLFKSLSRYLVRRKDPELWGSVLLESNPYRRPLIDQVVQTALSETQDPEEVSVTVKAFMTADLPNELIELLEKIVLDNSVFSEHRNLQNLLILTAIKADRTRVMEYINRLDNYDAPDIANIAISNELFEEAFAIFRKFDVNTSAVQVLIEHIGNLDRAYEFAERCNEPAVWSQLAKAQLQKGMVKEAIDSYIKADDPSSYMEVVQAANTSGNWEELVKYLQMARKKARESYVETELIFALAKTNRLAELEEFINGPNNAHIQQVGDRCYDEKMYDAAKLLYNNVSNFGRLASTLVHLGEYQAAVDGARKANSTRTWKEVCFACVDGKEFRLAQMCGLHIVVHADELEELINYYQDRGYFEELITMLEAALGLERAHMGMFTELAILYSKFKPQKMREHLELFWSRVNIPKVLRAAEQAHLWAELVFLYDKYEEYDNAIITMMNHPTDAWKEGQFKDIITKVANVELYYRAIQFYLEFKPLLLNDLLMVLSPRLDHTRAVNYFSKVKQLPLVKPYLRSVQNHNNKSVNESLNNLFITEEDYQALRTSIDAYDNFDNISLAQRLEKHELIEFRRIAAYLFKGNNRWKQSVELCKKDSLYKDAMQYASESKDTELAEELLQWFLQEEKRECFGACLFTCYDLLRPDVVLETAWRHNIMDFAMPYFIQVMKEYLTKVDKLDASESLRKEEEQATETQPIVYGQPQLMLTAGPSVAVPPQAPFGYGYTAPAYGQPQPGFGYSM
UniProt Q27974: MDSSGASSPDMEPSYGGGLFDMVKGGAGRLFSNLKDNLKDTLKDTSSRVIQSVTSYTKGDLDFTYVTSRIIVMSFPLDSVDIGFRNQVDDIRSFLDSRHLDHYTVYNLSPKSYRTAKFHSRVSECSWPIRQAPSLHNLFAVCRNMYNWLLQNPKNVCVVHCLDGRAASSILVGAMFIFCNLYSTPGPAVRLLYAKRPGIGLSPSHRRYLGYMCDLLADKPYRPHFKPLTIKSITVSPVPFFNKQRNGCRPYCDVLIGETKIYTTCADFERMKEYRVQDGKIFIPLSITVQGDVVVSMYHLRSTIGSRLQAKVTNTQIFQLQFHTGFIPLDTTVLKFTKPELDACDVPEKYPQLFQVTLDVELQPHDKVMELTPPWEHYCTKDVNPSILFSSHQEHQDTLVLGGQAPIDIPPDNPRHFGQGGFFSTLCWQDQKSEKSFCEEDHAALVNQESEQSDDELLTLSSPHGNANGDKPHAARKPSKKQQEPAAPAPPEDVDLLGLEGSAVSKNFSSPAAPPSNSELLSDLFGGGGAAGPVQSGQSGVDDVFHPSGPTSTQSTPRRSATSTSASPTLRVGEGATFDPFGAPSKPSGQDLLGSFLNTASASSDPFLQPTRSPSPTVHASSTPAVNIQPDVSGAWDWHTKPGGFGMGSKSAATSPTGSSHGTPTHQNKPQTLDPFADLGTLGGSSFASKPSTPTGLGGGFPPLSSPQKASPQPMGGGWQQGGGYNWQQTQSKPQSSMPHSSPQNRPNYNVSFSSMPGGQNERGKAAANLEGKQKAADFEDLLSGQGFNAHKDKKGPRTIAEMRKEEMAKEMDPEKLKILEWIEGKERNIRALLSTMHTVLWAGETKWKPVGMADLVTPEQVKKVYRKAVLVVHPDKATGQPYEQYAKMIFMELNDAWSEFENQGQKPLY

Our source for the binding values is PMC7031854.

These are yes or no findings as the source states them, for the method shown. Some results given as binding are weak or reduced against the parent protein; the word gives no strength.

Regarding “His-tagged recombinant bovine Hsc70 (from UniProt P19120 1-650)”, the binding entry is recorded as “binds”.
